PubChem BioAssay AID504791, Drosophila RNAi Screening Center | 2011
The screen tested about 23,000 reagents; shown is a random part of those that have a named target and a result. Of all reagents, 199 (0.86%) are marked active. 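Plate-scaled ratios behind the calls are not deposited; printed light signals are raw; many rows marked increased or decreased are still called inactive.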 Unmarked entries are inactive. The numbers tell different reagents against one gene apart. Names joined by + are all predicted targets of the reagent. The record does not give: the direction of the score.

Aim: 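Genes of the fly required for silencing by miRNA, siRNA or endo-siRNA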 (primary screen)
Cell system: Drosophila S2-derived reporter cells
Reagent: long dsRNA against Drosophila genes, about 150-250 ng dsRNA per well (siRNA assay); about 80-120 ng (miRNA assay)
Timing: about 5 days (siRNA assay); about 4 days (miRNA assay)
Treatment: copper sulfate induction of reporters: 25 µM (siRNA assay); 200 mM stated (miRNA assay), 1-2 days before reading
Measurement: 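Per-well ratio of Renilla over firefly light, expressed relative to that plate's average ratio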
Active means: 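a well was a first-pass pick when its plate-scaled ratio rose above 1.5 (siRNA assay) or 1.6 (miRNA assay), or dropped below 0.6; a gene counted only if two separate dsRNAs agreed on retest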

gene	dsRNA no.	stable siRNA reporter change	miRNA reporter change	stable assay Renilla, run 1 (luminescence)	stable assay firefly, run 1 (luminescence)
zf30C	1			32606	1.51e6
GluRIB + CG42509 (retired record)	1			6219	5.52e5
GluRIB + CG42509 (retired record)	2			6663	4.72e5
Eig71Eg	1			7215	4.87e5
CG9040	1			6735	4.98e5
Clk	1			5906	3.09e5
CG5399	1			8282	4.29e5
CG5440	1			7671	4.83e5
RSG7	1			4680	3.66e5
RSG7	2			5196	5.06e5
Ir56c	1			6000	3.58e5
bigmax	1	reporter ratio lowered past the hit cutoff		5074	4.95e5
CG12576	1			6455	4.45e5
KrT95D	1			11190	4.08e5
CG14937	1			7098	4.32e5
Glyp	1			5875	5.66e5
CG31122	1			4787	2.86e5
CG31122	2			7030	2.45e5
CG10962	1			7710	3.54e5
Dop1R1	1			4031	3.79e5
Dop1R1	2			4820	3.46e5
CG13126	1			7639	4.95e5
CG14613	1			7825	4.65e5
CYTB (retired record)	1			5699	4.12e5
sll	1			7499	2.66e5
Dlip2	1			7823	4.42e5
CG14708	1			6894	3.53e5
rdo	1			5750	1.23e6
dnk	1	reporter ratio lowered past the hit cutoff		6570	5.16e5
Hrb87F	1		reporter ratio raised past the hit cutoff	14736	5.71e5
Hrb87F	2		reporter ratio raised past the hit cutoff		
CG13113	1			9124	4.73e5
Cog8	1			6224	5.00e5
ATPsyndelta	1			3924	3.70e5

Single entries from above.
For “stable assay firefly, run 1 (luminescence)”, sll reads 2.66e5
Result for Dop1R1 #1 in “stable assay Renilla, run 1 (luminescence)”: 4031
For “stable assay Renilla, run 1 (luminescence)”, CG31122 #1 is entered as 4787
For “stable assay Renilla, run 1 (luminescence)”, ATPsyndelta has 3924
CG14613, stable assay Renilla, run 1 (luminescence): 7825
